Reference: PubChem BioAssay AID1671195 (Yale University, 2021)
Purpose: 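Knockdowns that increase or decrease uptake of fluorescent LDL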 (primary screen). Cell system: human Huh7 hepatoma cells. Knock-down reagent: siRNA pool against human genes, 18 nM. Duration: about 2 to 2.5 days of knockdown, then 8 h LDL uptake. Conditions: DiI-labelled LDL at 30 µg/ml for 8 h, in lipoprotein-deficient serum medium. Measurement: 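Fluorescent LDL signal imaged in cells, scaled to the plate median, robust z-score for each replicate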. Direction: robust z-score: higher = more LDL uptake after knockdown. Call rule: 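a gene counts as active if at least two replicate z-scores exceed ±2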.
Here is an unselected part of about 22,000 reagents tested. Over the whole deposit, about 1,510 (6.9%) got an active call. 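Active includes knockdowns raising or lowering LDL uptake; positive z-scores mean more uptake, negative mean less.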

no.	gene	PubChem SID	robust z-score, replicate 1	robust z-score, replicate 2	robust z-score, replicate 3	call
1	MAP1B	SID442901479	-0.63	-0.743	-1.34	inactive
2	APOL5	SID442887640	0.874	1.38	0.361	inactive
3	PKDREJ	SID442895504	-0.235	-0.512	0.222	inactive
4	CALY	SID442893554	0.0803	0.154	-0.124	inactive
5	CLN6	SID442897150	-1.1	0.0713	-0.0256	inactive
6	EIF1	SID442888574	1.93	-0.66	0.823	inactive
7	OOSP1	SID442891148	0.223	0.439	0.311	inactive
8	ZDHHC21	SID442888262	0.604	0.826	0.832	inactive
9	OR2V2	SID442888745	0.326	0.21	1.47	inactive
10	MYOM2	SID442893138	0.00774	-0.363	0.608	inactive
11	MICOS13	SID442896028	0.021	0.0855	-0.8	inactive
12	LOC387904 (retired record)	SID442884643	1.66	1.82	2.7	inactive
13	C22orf39	SID442899165	-0.252	-0.282	-1.22	inactive
14	IFT38	SID442888116	2.26	-0.94	1.03	inactive
15	HNRNPDL	SID442899275	-0.473	-0.418	-0.908	inactive
16	GALP	SID442898723	0.206	-1.02	-0.781	inactive
17	ADAMTS13	SID442898009	-0.563	-0.755	-0.0358	inactive
18	LOC400605 (retired record)	SID442900850	-0.669	-1.02	-0.761	inactive
19	MAGEE2	SID442904419	-1.66	-1.6	-1.64	inactive
20	ERICH2	SID442892172	0.21	0.0494	0.341	inactive
21	LOC440755 (retired record)	SID442900903	-4.33	0.908	0.955	inactive
22	LOC342669 (retired record)	SID442900867	-0.817	-0.806	-0.835	inactive
23	MRPS11	SID442904518	-1.54	-1.83	-1.68	inactive
24	OR52B4	SID442900827	0.045	-1.53	-0.957	inactive
25	STK24	SID442899694	-0.149	-0.96	-0.86	inactive
26	LOC442273 (retired record)	SID442904562	-1.77	-1.77	-1.61	inactive
27	NUMBL	SID442895919	-0.252	-0.151	-0.257	inactive
28	LOC343717 (retired record)	SID442893259	-0.0504	0.0128	0.25	inactive
29	TPCN1	SID442884520	-2.23	-2.73	-1.94	active
30	LOC440601 (retired record)	SID442903432	-1.14	-1.32	-1.43	inactive
31	IL9R	SID442902095	-0.831	-1.14	-1.06	inactive
32	CNOT7	SID442884566	-2.7	-2.28	-2.63	active
33	CACNA1F	SID442885655	2.35	0.477	1.43	inactive
34	BCL2A1	SID442887727	1.61	1.05	-0.102	inactive
35	LOC441162 (retired record)	SID442898567	-0.14	-0.648	-0.755	inactive
36	DBR1	SID442889314	0.415	0.358	0.964	inactive
37	GNG12	SID442899383	-0.659	-0.662	-0.519	inactive
38	GBA1	SID442887328	1.09	0.932	0.788	inactive
39	GALNTL6	SID442901351	-0.979	-1.06	-0.622	inactive
40	TRPC1	SID442889799	1.07	0.746	-0.291	inactive
41	PRR5L	SID442888198	0.795	0.955	0.552	inactive
42	LINC02667	SID442893615	0.329	0.235	-0.476	inactive
43	PFN1	SID442883830	2.13	2.86	1.79	active
44	NKX2-2	SID442884043	2.31	1.64	2.15	active
45	ARHGAP31	SID442885624	0.153	1.64	2.52	inactive
46	ID3	SID442901073	-0.878	-0.562	-1.1	inactive
47	NCOA2	SID442897457	-0.265	-0.316	-0.583	inactive
48	RNF213	SID442888386	0.916	0.741	0.533	inactive
49	RNF213	SID442901815	-0.897	-1.04	-0.96	inactive
50	ADIRF	SID442896509	-0.429	-0.837	0.423	inactive
51	ADAMTS8	SID442899291	-0.625	-0.642	-0.539	inactive
52	LOC441959 (retired record)	SID442897310	-0.708	-0.17	-0.236	inactive
53	TBX1	SID442886540	0.616	1.59	1.2	inactive
54	NUDT3	SID442893600	0.0736	0.0586	-0.0387	inactive
55	RBP5	SID442896196	-0.227	-0.265	-0.251	inactive
56	WDR70	SID442883123	2.83	1.69	10.7	active
57	TRABD	SID442897043	0.147	-0.7	-0.467	inactive
58	ZFAND3	SID442901609	-1.15	-0.693	-0.937	inactive
59	UBLCP1	SID442886307	0.0553	2.05	1.49	inactive
60	ARL5C	SID442888920	0.491	0.852	0.573	inactive
61	NFS1	SID442902346	-1.28	-0.637	-1.25	inactive
62	FMN2	SID442887909	-0.481	1.47	1.47	inactive
63	FAM215A	SID442898738	0.793	-1.63	-0.753	inactive
64	TM6SF1	SID442895450	-0.74	1.92	-1.69	inactive
65	LOC391599 (retired record)	SID442898836	-0.648	-0.674	-0.309	inactive
66	CTIF	SID442902171	-0.387	-1.3	-1.38	inactive
67	KRI1	SID442903543	-1.32	-1.34	-1.32	inactive
68	SPRED3	SID442904342	-1.73	-1.53	-1.51	inactive

A portion of the results above, for reference:
no.	gene	PubChem SID	robust z-score, replicate 1	robust z-score, replicate 2	robust z-score, replicate 3	call
59	UBLCP1	SID442886307	0.0553	2.05	1.49	inactive
60	ARL5C	SID442888920	0.491	0.852	0.573	inactive
61	NFS1	SID442902346	-1.28	-0.637	-1.25	inactive
62	FMN2	SID442887909	-0.481	1.47	1.47	inactive
63	FAM215A	SID442898738	0.793	-1.63	-0.753	inactive
64	TM6SF1	SID442895450	-0.74	1.92	-1.69	inactive
